Test results published in patent US20240060131A1, “METHOD FOR IDENTIFYING AND/OR REGULATING SENESCENCE” (INSTITUTE OF ZOOLOGY, CHINESE ACADEMY OF SCIENCES, priority 2020, published 2024).
At least one compound was matched to its structure with a doubt left.

Test system: WS hMPC
Test: Ki67 and SA-β-gal staining of WS hMPC treated with retrovirus inhibitors
Format: cell-based, human
Conditions: WS hMPCs, 10 μM lamivudine (3TC), abacavir (0.2 μM), Raltegravir, vs DMSO solvent control
Procedure: Cells seeded on coverslip (Thermo Fisher Scientific) were washed by PBS, fixed in 4% paraformaldehyde (PFA), permeabilized in 0.4% Triton X-100, blocked by 10% donkey serum. The coverslip was incubated with primary antibody at 4° C. in blocking buffer, then incubated with secondary antibody at room temperature for 1 h. Nucleus was labelled by Hoechst 33342 (Invitrogen).
For treatment by endogenous viral reverse transcriptase inhibitor and integrase inhibitor, hMPCs were treated by […] abacavir, lamivudine (3TC) and Raltegravir, respectively, medium was replaced every 3 days, followed by new treatment. After treatment of two cell passages, cells were used for Ki67 immunofluorescence, SA-β-gal staining and RNA/DNA extraction.
Cells were fixed by a buffer containing 2% (w/v) formaldehyde and 0.2% (w/v) glutaraldehyde for 5 min, and treated by staining buffer containing 1 mg/mL X-gal at 37° C. overnight.
10 μM lamivudine (3TC), abacavir (0.2 μM) and Raltegravir were added to WS hMPC, respectively, incubated at 37° C., and fresh medium containing each drug was replaced every two days, solvents dissolving above-mentioned drug with DMSO added at a corresponding amount were used as control.
Above-mentioned cells were stained by Ki67 and SA-β-gal.

For `Nc1ccn([C@@H]2CS[C@H](CO)O2)c(=O)n1` [lamivudine], the Ki67 positive cells was “significantly were increased”, the SA-β-gal positive cells was “significantly were decreased” and the Ki67 positive cells (listed as Lamivadine) was “increase”. For the same compound, the SA-β-gal positive cells (listed as Lamivadine) was “reduce”.
